{"sequences": {"note": "The chains behind the UniProt entries cited, without tags or fusion partners.", "UniProt P54578": "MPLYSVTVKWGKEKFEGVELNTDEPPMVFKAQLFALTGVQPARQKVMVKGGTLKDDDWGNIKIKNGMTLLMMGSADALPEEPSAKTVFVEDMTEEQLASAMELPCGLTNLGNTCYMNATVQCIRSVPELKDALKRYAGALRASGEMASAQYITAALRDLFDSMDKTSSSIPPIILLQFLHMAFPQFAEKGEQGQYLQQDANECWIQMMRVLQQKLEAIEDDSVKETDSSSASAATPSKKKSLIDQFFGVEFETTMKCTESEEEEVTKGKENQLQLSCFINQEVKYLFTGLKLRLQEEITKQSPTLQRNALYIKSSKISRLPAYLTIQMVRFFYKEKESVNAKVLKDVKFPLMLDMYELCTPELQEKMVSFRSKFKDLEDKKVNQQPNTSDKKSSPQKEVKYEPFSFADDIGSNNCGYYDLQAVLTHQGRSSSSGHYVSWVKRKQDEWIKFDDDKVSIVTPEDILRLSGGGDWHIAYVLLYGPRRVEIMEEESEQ"}, "source": "paper PMC12048998", "binders": {"B1": {"name": "BAG4 (protein, UniProt O95429 1-457)", "chain": "MSALRRSGYGPSDGPSYGRYYGPGGGDVPVHPPPPLYPLRPEPPQPPISWRVRGGGPAETTWLGEGGGGDGYYPSGGAWPEPGRAGGSHQEQPPYPSYNSNYWNSTARSRAPYPSTYPVRPELQGQSLNSYTNGAYGPTYPPGPGANTASYSGAYYAPGYTQTSYSTEVPSTYRSSGNSPTPVSRWIYPQQDCQTEAPPLRGQVPGYPPSQNPGMTLPHYPYGDGNRSVPQSGPTVRPQEDAWASPGAYGMGGRYPWPSSAPSAPPGNLYMTESTSPWPSSGSPQSPPSPPVQQPKDSSYPYSQSDQSMNRHNFPCSVHQYESSGTVNNDDSDLLDSQVQYSAEPQLYGNATSDHPNNQDQSSSLPEECVPSDESTPPSIKKIIHVLEKVQYLEQEVEEFVGKKTDKAYWLLEEMLTKELLELDSVETGGQDSVRQARKEAVCKIQAILEKLEKKGL"}, "B2": {"name": "Flag-tagged BAG4 (protein, UniProt O95429 1-457)", "chain": "B1 chain"}}, "key": {"[1]": {"target": "USP14 (human (endogenous in LoVo and SW48)) (UniProt P54578)", "assay": "co-IP; endogenous proteins in LoVo and SW48 lysates; lysis buffer 1% NP-40, 150 mM NaCl, 50 mM Tris-HCl pH 7.4, 1 mM EDTA; 2 µg antibody per 1 mg lysate overnight at 4 °C, Protein A/G beads"}, "[2]": {"target": "Myc-tagged USP14 (human) (UniProt P54578)", "assay": "co-IP; HEK293T cells co-transfected with Myc-tagged USP14 and Flag-tagged BAG4 plasmids (whole or truncated); lysis buffer 1% NP-40, 150 mM NaCl, 50 mM Tris-HCl pH 7.4, 1 mM EDTA; Protein A/G beads"}}, "note": "No constants are given. Whether binding was seen depends on the method and setting. Binding seen in cells or lysates may run through a third protein. Some results given as binding are weak or reduced against the parent protein; the word gives no strength. For some assays here: Where a sequence is shown, tags or fusion partners need not be part of it."}
{"binder": "B1", "values": [{"measurement": "binding", "setting": "[1]", "result": "binds"}]}
{"binder": "B2", "values": [{"measurement": "binding", "setting": "[2]", "result": "binds"}]}
